Binding data for three molecules are collected here from patent US20240124607A1.

Protein sequences, listed by entry. Tags and fused reporters are not part of them. Lines headed by an entry give the natural chain unless they say otherwise; changes in a name come on top.
UniProt O54709: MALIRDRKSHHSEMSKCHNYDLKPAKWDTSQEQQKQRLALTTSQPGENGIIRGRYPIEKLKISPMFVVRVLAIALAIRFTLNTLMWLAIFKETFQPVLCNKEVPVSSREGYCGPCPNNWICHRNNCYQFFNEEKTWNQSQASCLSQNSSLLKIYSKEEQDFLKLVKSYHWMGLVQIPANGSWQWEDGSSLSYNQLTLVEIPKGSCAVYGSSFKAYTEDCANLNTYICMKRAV

These are yes or no findings as the source states them, for the method shown. Some entries that bind do so weakly or less than the wild type.

B1: ADI-27740 (antibody, V domains shown)
VH: QVQLQQWGAGLLKPSETLSLTCAVYGGSFSGYYWSWIRQPPGKGLEWIGEIDHSGSTNYNPSLKSRVTISVDTSKNQFSLKLSSVTAADTAVYYCARARGPWSFDPWGQGTLVTVSS
VL: DIQMTQSPSTLSASVGDRVTITCRASQSIGSWLAWYQQKPGKAPKLLIYKASSLESGVPSRFSGSGSGTEFTLTISSLQPDDFATYYCQQYHSFYTFGGGTKVEIK
B2: ADI-27741 (antibody, V domains shown)
VH: QVQLQQWGAGLLKPSETLSLTCAVYGGSFSGYYWSWIRQPPGKGLEWIGEIDHSGSTNYNPSLKSRVTISVDTSKNQFSLKLSSVTAADTAVYYCARARGPWSFDPWGQGTLVTVSS
VL: DIQMTQSPSTLSASVGDRVTITCRASQSIGSWLAWYQQKPGKAPKLLIYKASSLESGVPSRFSGSGSGTEFTLTISSLQPDDFATYYCQQSNSYYTFGGGTKVEIK
B3: ADI-28226 (antibody, V domains shown)
VH: QVQLQQWGAGLLKPSETLSLTCAVYGGSFSGYYWSWIRQPPGKGLEWIGEIDHSGSTNYNPSLKSRVTISVDTSKNQFSLKLSSVTAADTAVYYCARARGPWSFDPWGQGTLVTVSS
VL: DIQMTQSPSTLSASVGDRVTITCRASQSISSWLAWYQQKPGKAPKLLIYKASSLESGVPSRFSGSGSGTEFTLTISSLQPDDFATYYCQQYGSFPITFGGGTKVEIK

This assay concerns the target mouse NKG2D-CD3 zeta chimeric antigen receptor on EL4 cells (mouse) (UniProt O54709). The assay can be described thus: flow cytometry at 100 nM on EL4 cells expressing mouse NKG2D-CD3 zeta CAR, MFI fold over parental EL4.
For the molecule B1, the binding result is listed as “binds”. In the case of B2 it was “binds”; in that of B3, “binds”.
